Test results from publication PMC4068158.
Read-outs that look alike come from different tables or passages of the source. Results are given in words; binding and its absence hold for the method and conditions named. Binding seen in cells or lysates may run through a third protein. A yes stands for co-enrichment or nearness to the bait. Other partners may have been found. For part of these data: Where a sequence is shown, tags or fusion partners need not be part of it.

Chains of the proteins cited; added tags and fusions are not shown. Residues count along the entry.
UniProt Q9UNN5, residues 2-650: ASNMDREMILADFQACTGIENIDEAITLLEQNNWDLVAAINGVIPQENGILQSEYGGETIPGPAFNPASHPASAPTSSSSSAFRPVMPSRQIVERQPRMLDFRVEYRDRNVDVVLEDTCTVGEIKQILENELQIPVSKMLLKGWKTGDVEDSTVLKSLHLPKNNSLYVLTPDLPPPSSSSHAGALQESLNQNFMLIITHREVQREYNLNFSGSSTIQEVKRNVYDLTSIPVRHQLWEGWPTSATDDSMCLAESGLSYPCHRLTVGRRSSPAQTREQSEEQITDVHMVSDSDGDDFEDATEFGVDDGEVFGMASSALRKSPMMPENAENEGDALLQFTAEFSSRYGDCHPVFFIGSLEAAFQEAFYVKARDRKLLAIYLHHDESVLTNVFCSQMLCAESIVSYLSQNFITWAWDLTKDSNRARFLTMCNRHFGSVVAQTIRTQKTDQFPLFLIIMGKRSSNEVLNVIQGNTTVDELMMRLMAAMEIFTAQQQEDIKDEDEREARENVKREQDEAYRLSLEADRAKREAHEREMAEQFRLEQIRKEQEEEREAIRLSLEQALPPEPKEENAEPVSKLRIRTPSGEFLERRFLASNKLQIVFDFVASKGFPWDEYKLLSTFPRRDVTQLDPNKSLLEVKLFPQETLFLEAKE
UniProt O95292: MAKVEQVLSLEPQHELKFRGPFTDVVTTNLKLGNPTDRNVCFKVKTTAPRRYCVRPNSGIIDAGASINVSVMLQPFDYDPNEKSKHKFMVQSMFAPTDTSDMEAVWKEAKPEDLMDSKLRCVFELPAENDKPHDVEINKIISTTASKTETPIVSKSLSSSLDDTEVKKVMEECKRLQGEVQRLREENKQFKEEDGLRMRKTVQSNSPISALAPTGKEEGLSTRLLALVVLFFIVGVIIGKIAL
UniProt Q9QY76: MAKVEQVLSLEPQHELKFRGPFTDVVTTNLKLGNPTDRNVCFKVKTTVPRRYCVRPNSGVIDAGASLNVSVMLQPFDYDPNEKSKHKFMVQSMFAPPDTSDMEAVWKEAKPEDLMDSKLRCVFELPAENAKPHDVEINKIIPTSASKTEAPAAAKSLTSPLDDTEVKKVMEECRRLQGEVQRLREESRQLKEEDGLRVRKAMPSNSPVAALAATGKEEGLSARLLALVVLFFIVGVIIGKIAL
UniProt P46379: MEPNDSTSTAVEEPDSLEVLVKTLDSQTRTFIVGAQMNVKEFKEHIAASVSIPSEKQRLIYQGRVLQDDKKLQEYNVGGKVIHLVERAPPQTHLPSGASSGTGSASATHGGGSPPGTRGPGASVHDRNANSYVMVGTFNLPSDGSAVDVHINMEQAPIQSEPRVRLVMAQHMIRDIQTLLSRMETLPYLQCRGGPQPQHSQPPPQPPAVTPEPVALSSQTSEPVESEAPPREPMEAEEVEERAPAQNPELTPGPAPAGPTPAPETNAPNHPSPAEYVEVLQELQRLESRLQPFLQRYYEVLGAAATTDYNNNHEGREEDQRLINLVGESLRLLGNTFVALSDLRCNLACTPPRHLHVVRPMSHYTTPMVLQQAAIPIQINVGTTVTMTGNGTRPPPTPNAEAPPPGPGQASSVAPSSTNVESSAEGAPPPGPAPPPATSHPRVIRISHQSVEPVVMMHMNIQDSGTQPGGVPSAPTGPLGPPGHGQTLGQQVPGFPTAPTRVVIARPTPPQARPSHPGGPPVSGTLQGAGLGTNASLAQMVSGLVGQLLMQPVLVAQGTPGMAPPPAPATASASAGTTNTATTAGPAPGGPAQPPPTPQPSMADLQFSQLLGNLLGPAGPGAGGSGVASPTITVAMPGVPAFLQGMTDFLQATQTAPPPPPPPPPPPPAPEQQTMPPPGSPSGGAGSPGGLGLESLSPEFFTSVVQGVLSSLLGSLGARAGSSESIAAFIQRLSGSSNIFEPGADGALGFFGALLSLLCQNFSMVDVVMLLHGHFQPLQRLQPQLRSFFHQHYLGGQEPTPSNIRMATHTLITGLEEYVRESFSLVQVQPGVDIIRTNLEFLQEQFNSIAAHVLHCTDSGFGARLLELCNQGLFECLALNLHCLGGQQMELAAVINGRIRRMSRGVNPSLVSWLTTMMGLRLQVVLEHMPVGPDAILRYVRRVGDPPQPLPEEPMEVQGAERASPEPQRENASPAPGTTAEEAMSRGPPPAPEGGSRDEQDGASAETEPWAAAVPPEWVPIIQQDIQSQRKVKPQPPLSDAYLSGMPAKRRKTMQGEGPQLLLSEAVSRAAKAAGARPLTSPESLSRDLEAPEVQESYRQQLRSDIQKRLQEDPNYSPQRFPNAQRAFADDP
UniProt Q7L5D6: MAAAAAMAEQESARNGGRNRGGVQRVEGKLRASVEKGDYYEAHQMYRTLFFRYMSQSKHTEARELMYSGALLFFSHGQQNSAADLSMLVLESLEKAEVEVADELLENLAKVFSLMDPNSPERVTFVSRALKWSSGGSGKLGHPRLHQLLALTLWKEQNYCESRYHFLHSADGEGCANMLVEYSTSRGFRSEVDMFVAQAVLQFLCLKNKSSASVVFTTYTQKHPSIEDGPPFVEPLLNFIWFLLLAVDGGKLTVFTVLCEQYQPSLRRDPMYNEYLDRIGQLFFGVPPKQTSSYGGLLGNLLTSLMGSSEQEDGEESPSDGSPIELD

T1: Flag-VAPA wild type (human) (UniProt Q9P0L0)
T1 sequence: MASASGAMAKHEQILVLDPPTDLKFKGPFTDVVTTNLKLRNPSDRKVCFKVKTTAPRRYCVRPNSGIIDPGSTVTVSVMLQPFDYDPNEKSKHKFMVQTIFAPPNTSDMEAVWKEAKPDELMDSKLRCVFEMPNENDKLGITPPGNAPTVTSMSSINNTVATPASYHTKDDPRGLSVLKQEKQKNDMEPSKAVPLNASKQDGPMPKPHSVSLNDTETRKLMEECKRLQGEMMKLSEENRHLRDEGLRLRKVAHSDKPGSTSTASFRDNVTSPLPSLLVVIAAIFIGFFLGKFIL


Experiments:
[1] = target: Flag-FAF1 wild type (human) (UniProt Q9UNN5); experiment: affinity purification with mass spectrometry; Flag-FAF1 immunoprecipitated with anti-Flag beads from U2OS cells, untreated or MG132 for 2 or 6 hr; untransfected cells as control
[2] = target: endogenous VAPB (human cells) (human (endogenous in U2OS, HeLa, SH-SY5Y)) (UniProt O95292); experiment: affinity purification with mass spectrometry; SILAC; endogenous VAPB immunoprecipitated from mixed light and heavy U2OS lysates, MG132 for 2 or 6 hr against untreated
[3] = target: Flag-FAF1 wild type (human) (UniProt Q9UNN5); experiment: affinity purification with mass spectrometry; Flag-FAF1 immunoprecipitated with anti-Flag beads from U2OS cells, untreated or MG132 for 2 or 6 hr; untransfected cells as control; remark: listed apart in the source
[4] = target: Flag-VAPB full length wild type (human) (UniProt O95292); experiment: affinity purification with mass spectrometry; Flag-VAPA or Flag-VAPB immunoprecipitated with anti-Flag beads from U2OS cells; untransfected cells as control
[5] = target: endogenous VAPB (human cells) (human (endogenous in U2OS, HeLa, SH-SY5Y)) (UniProt O95292); experiment: affinity purification with mass spectrometry; endogenous VAPB immunoprecipitated from HeLa cells; uncoupled Protein A-beads as control
[6] = target: T1, Flag-VAPA wild type (human); experiment: affinity purification with mass spectrometry; Flag-VAPA or Flag-VAPB immunoprecipitated with anti-Flag beads from U2OS cells; untransfected cells as control
[7] = target: endogenous VAPB (mouse brain) (mouse (endogenous in brain)) (UniProt Q9QY76); experiment: affinity purification with mass spectrometry; endogenous VAPB immunoprecipitated from mouse brain extracts; uncoupled Protein A-beads as control

Molecule	binding [1]	binding [2]	binding [4]	binding [6]	other results
endogenous BAG6 (human cells) (from UniProt P46379 1-1132)	binds				
endogenous GET4 (human cells) (from UniProt Q7L5D6 1-327)	binds	binds			
endogenous VAPB (human cells) (from UniProt O95292 1-243)	binds				
endogenous UBL4A (human cells) (protein, UniProt P11441 1-157) MQLTVKALQGRECSLQVPEDELVSTLKQLVSEKLNVPVRQQRLLFKGKALADGKRLSDYSIGPNSKLNLVVKPLEKVLLEEGEAQRLADSPPPQVWQLISKVLARHFSAADASRVLEQLQRDYERSLSRLTLDDIERLASRFLHPEVTETMEKGFSK		binds			binding [3]: binds
endogenous DDOST (human cells) (protein, UniProt P39656 43-456) SGPRTLVLLDNLNVRETHSLFFRSLKDRGFELTFKTADDPSLSLIKYGEFLYDNLIIFSPSVEDFGGNINVETISAFIDGGGSVLVAASSDIGDPLRELGSECGIEFDEEKTAVIDHHNYDISDLGQHTLIVADTENLLKAPTIVGKSSLNPILFRGVGMVADPDNPLVLDILTGSSTSYSFFPDKPITQYPHAVGKNTLLIAGLQARNNARVIFSGSLDFFSDSFFNSAVQKAAPGSQRYSQTGNYELAVALSRWVFKEEGVLRVGPVSHHRVGETAPPNAYTVTDLVEYSIVIQQLSNGKWVPFDGDDIQLEFVRIDPFVRTFLKKKGGKYSVQFKLPDVYGVFQFKVDYNRLGYTHLYSSTQVSVRPLQHTQYERFIPSAYPYYASAFSMMLGLFIFSIVFLHMKEKEKSD		binds	binds		binding [3]: binds
endogenous RAB3GAP1 (human cells) (protein, UniProt Q15042 1-981) MAADSEPESEVFEITDFTTASEWERFISKVEEVLNDWKLIGNSLGKPLEKGIFTSGTWEEKSDEISFADFKFSVTHHYLVQESTDKEGKDELLEDVVPQSMQDLLGMNNDFPPRAHCLVRWYGLREFVVIAPAAHSDAVLSESKCNLLLSSVSIALGNTGCQVPLFVQIHHKWRRMYVGECQGPGVRTDFEMVHLRKVPNQYTHLSGLLDIFKSKIGCPLTPLPPVSIAIRFTYVLQDWQQYFWPQQPPDIDALVGGEVGGLEFGKLPFGACEDPISELHLATTWPHLTEGIIVDNDVYSDLDPIQAPHWSVRVRKAENPQCLLGDFVTEFFKICRRKESTDEILGRSAFEEEGKETADITHALSKLTEPASVPIHKLSVSNMVHTAKKKIRKHRGVEESPLNNDVLNTILLFLFPDAVSEKPLDGTTSTDNNNPPSESEDYNLYNQFKSAPSDSLTYKLALCLCMINFYHGGLKGVAHLWQEFVLEMRFRWENNFLIPGLASGPPDLRCCLLHQKLQMLNCCIERKKARDEGKKTSASDVTNIYPGDAGKAGDQLVPDNLKETDKEKGEVGKSWDSWSDSEEEFFECLSDTEELKGNGQESGKKGGPKEMANLRPEGRLYQHGKLTLLHNGEPLYIPVTQEPAPMTEDLLEEQSEVLAKLGTSAEGAHLRARMQSACLLSDMESFKAANPGCSLEDFVRWYSPRDYIEEEVIDEKGNVVLKGELSARMKIPSNMWVEAWETAKPIPARRQRRLFDDTREAEKVLHYLAIQKPADLARHLLPCVIHAAVLKVKEEESLENISSVKKIIKQIISHSSKVLHFPNPEDKKLEEIIHQITNVEALIARARSLKAKFGTEKCEQEEEKEDLERFVSCLLEQPEVLVTGAGRGHAGRIIHKLFVNAQRAAAMTPPEEELKRMGSPEERRQNSVSDFPPPAGREFILRTTVPRPAPYSKALPQRMYSVLTKEDFRLAGAFSSDTSFF			binds	binds	binding [5]: binds
endogenous RAB3GAP2 (human cells) (protein, UniProt Q9H2M9 1-1393) MACSIVQFCYFQDLQAARDFLFPHLREEILSGALRRDPSKSTDWEDDGWGAWEENEPQEPEEEGNTCKTQKTSWLQDCVLSLSPTNDLMVIAREQKAVFLVPKWKYSDKGKEEMQFAVGWSGSLNVEEGECVTSALCIPLASQKRSSTGRPDWTCIVVGFTSGYVRFYTENGVLLLAQLLNEDPVLQLKCRTYEIPRHPGVTEQNEELSILYPAAIVTIDGFSLFQSLRACRNQVAKAAASGNENIQPPPLAYKKWGLQDIDTIIDHASVGIMTLSPFDQMKTASNIGGFNAAIKNSPPAMSQYITVGSNPFTGFFYALEGSTQPLLSHVALAVASKLTSALFNAASGWLGWKSKHEEEAVQKQKPKVEPATPLAVRFGLPDSRRHGESICLSPCNTLAAVTDDFGRVILLDVARGIAIRMWKGYRDAQIGWIQTVEDLHERVPEKADFSPFGNSQGPSRVAQFLVIYAPRRGILEVWSTQQGPRVGAFNVGKHCRLLYPGYKIMGLNNVTSQSWQPQTYQICLVDPVSGSVKTVNVPFHLALSDKKSERAKDMHLVKKLAALLKTKSPNLDLVETEIKELILDIKYPATKKQALESILASERLPFSCLRNITQTLMDTLKSQELESVDEGLLQFCANKLKLLQLYESVSQLNSLDFHLDTPFSDNDLALLLRLDEKELLKLQALLEKYKQENTRTNVRFSDDKDGVLPVKTFLEYLEYEKDVLNIKKISEEEYVALGSFFFWKCLHGESSTEDMCHTLESAGLSPQLLLSLLLSVWLSKEKDILDKPQSICCLHTMLSLLSKMKVAIDETWDSQSVSPWWQQMRTACIQSENNGAALLSAHVGHSVAAQISNNMTEKKFSQTVLGADSEALTDSWEALSLDTEYWKLLLKQLEDCLILQTLLHSKGNTQTSKVSSLQAEPLPRLSVKKLLEGGKGGIADSVAKWIFKQDFSPEVLKLANEERDAENPDEPKEGVNRSFLEVSEMEMDLGAIPDLLHLAYEQFPCSLELDVLHAHCCWEYVVQWNKDPEEARFFVRSIEHLKQIFNAHVQNGIALMMWNTFLVKRFSAATYLMDKVGKSPKDRLCRRDVGMSDTAMTSFLGSCLDLLQILMEADVSRDEIQVPVLDTEDAWLSVEGPISIVELALEQKHIHYPLVEHHSILCSILYAVMRFSLKTVKPLSLFDSKGKNAFFKDLTSIQLLPSGEMDPNFISVRQQFLLKVVSAAVQAQHSATKVKDPTEEATPTPFGKDQDWPALAVDLAHHLQVSEDVVRRHYVGELYNYGVDHLGEEAILQVHDKEVLASQLLVLTGQRLAHALLHTQTKEGMELLARLPPTLCTWLKAMDPQDLQNTEVPIATTAKLVNKVIELLPEKHGQYGLALHLIEAVEAISLPSL			binds	binds	binding [5]: binds
endogenous WDR44 (human cells) (protein, UniProt Q5JSH3 1-913) MASESDTEEFYDAPEDVHLGGGYPVGSPGKVGLSTFKETENTAYKVGNESPVQELKQDVSKKIIESIIEESQKVLQLEDDSLDSKGKELSDQATASPIVARTDLSNIPGLLAIDQVLPEESQKAESQNTFEETELELKKCFPSDETCEKPVDETTKLTQTSSTEQLNVLETETEVLNKEAVEVKGGGDVLEPVSSDSLSTKDFAAVEEVAPAKPPRHLTPEPDIVASTKKPVPARPPPPTNFPPPRPPPPSRPAPPPRKRKSELEFETLKTPDIDVPKENITSDSLLTASMASESTVKDSQPSLDLASATSGDKIVTAQENGKAPDGQTVAGEVMGPQRPRSNSGRELTDEEILASVMIKNLDTGEEIPLSLAEEKLPTGINPLTLHIMRRTKEYVSNDAAQSDDEEKLQSQPTDTDGGRLKQKTTQLKKFLGKSVKRAKHLAEEYGERAINKVKSVRDEVFHTDQDDPSSSDDEGMPYTRPVKFKAAHGFKGPYDFDQIKVVQDLSGEHMGAVWTMKFSHCGRLLASAGQDNVVRIWALKNAFDYFNNMRMKYNTEGRVSPSPSQESLSSSKSDTDTGVCSGTDEDPDDKNAPFRQRPFCKYKGHTADLLDLSWSKNYFLLSSSMDKTVRLWHISRRECLCCFQHIDFVTAIAFHPRDDRYFLSGSLDGKLRLWNIPDKKVALWNEVDGQTKLITAANFCQNGKYAVIGTYDGRCIFYDTEHLKYHTQIHVRSTRGRNKVGRKITGIEPLPGENKILVTSNDSRIRLYDLRDLSLSMKYKGYVNSSSQIKASFSHDFTYLVSGSEDKYVYIWSTYHDLSKFTSVRRDRNDFWEGIKAHNAVVTSAIFAPNPSLMLSLDVQSEKSEGNEKSEDAEVLDATPSGIMKTDNTEVLLSADFTGAIKVFVNKRKNVS			binds	binds	
endogenous WDR44 (mouse brain) (protein, UniProt Q6NVE8 1-915) MASESDTEEFYDAPEDVHLGTGYPVGSPGKVGLLSFKEAENTANQAGNESPVQELRQDVSKKIIESIIEESQKVLQLEDDSLDSKGKGLSDEATAGPSVAGTEFSNIPGLLAIEHELQQDSEKAESQNVAEESELETQKCFPSDETCEKSEKTVDETDNLTEVSSGEQLDASGLEAETLNKEALEVKEGDVLDPASLDTLSTTDFAAVEEVAPAKPPRHLTPEPDIVASTKKPVPARPPPPTNFPPPRPPPPSRPAPPPRKKKSELEFEALKTPDLDVPKENITSDSLLTTNMASENTVRDSLPSLDLASATSGDKIVTAQENGKAPDVQTVAGEVMGPQRPRSNSGRELTDEEILASVMIKNLDTGEEIPLSLAEEKLPTGINPLTLHIMRRTKEYVSNDATQSDDEEKLQSQQTDTDGGRLKQKTTQLKKFLGKSVKRAKHLAEEYGERAINKVKSVRDEVFHTDQDDPSSSDDEGMPYTRPVKFKAAHGFKGPYDFDQIKVVQDLSGEHMGAVWTMKFSHCGRLLASAGQDNIVRIWALKNAFDYFNNMRMKYNTEGRVSPSPSQESLSSSKSDTDMGVCSGTDEDPDDKNAPFRQRPFCKYKGHTADLLDLSWSKNYFLLSSSMDKTVRLWHISRRECLCCFQHIDFVTAIAFHPRDDRYFLSGSLDGKLRLWNIPDKKVALWNEVDGQTKLITAANFCQNGKYAVIGTYDGRCIFYDTEHLKYHTQIHVRSTRGRNKVGRKITGIEPLPGENKILVTSNDSRIRLYDLRDLSLSMKYKGYVNSSSQIKASFSHDFTYLVSGSEDKYVYIWSTYHDLSKFTSVRRDRNDFWEGIKAHNAVVTSAIFAPNPSLMLSLDVQSEKLEGIDKYEDAEVLDSTSTGIVKTDNTEVLLSADFTGAIKVFINKRKTVS					binding [7]: binds
